Results are given in words; binding and its absence hold for the method and conditions named. In cells and extracts the contact can be indirect. Some entries that bind do so weakly or less than the wild type.
B1: SRSF2 (protein, UniProt Q01130 1-221)
chain: MSYGRPPPDVEGMTSLKVDNLTYRTSPDTLRRVFEKYGRVGDVYIPRDRYTKESRGFAFVRFHDKRDAEDAMDAMDGAVLDGRELRVQMARYGRPPDSHHSRRGPPPRRYGGGGYGRRSRSPRRRRRSRSRSRSRSRSRSRSRYSRSKSRSRTRSRSRSTSKSRSARRSKSKSSSVSRSRSRSRSRSRSRSPPPVSKRESKSRSRSKSPPKSPEEEGAVSS
B2: TRA2B (protein, UniProt P62995 1-288)
chain: MSDSGEQNYGERESRSASRSGSAHGSGKSARHTPARSRSKEDSRRSRSKSRSRSESRSRSRRSSRRHYTRSRSRSRSHRRSRSRSYSRDYRRRHSHSHSPMSTRRRHVGNRANPDPNCCLGVFGLSLYTTERDLREVFSKYGPIADVSIVYDQQSRRSRGFAFVYFENVDDAKEAKERANGMELDGRRIRVDFSITKRPHTPTPGIYMGRPTYGSSRRRDYYDRGYDRGYDDRDYYSRSYRGGGGGGGGWRAAQDRDQIYRRRSPSPYYSRGGYRSRSRSRSYSPRRY

The chains behind the UniProt entries cited, without tags or fusion partners.
UniProt P03146: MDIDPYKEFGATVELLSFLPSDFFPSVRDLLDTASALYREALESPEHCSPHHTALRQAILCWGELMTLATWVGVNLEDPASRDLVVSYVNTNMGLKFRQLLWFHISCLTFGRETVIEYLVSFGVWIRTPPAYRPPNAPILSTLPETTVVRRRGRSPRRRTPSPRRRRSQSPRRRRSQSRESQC
UniProt P09874: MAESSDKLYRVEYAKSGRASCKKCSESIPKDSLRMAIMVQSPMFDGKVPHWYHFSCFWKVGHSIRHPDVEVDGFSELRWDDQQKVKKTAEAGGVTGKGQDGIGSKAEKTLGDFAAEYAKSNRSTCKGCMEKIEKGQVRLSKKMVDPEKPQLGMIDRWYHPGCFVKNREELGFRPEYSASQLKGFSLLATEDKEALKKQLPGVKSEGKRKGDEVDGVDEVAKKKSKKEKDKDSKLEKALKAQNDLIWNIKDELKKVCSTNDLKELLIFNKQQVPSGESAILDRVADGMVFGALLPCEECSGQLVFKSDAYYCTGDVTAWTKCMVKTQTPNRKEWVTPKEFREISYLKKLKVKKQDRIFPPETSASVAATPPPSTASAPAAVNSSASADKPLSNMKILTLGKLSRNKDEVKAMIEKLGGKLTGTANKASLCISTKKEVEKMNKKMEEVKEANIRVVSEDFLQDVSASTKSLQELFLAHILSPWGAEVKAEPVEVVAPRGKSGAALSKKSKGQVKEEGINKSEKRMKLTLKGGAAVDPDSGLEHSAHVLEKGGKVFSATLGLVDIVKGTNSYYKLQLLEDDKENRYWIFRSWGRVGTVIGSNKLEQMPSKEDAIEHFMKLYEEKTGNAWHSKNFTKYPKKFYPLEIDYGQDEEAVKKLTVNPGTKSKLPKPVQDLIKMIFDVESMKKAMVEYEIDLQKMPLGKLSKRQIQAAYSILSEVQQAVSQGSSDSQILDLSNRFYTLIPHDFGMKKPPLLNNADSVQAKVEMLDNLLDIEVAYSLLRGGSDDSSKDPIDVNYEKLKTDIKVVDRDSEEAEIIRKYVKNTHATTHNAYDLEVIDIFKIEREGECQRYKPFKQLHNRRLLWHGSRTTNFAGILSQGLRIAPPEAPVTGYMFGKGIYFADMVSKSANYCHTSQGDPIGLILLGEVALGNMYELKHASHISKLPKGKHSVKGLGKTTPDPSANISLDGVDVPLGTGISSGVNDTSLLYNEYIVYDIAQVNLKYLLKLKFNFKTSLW
UniProt O75190: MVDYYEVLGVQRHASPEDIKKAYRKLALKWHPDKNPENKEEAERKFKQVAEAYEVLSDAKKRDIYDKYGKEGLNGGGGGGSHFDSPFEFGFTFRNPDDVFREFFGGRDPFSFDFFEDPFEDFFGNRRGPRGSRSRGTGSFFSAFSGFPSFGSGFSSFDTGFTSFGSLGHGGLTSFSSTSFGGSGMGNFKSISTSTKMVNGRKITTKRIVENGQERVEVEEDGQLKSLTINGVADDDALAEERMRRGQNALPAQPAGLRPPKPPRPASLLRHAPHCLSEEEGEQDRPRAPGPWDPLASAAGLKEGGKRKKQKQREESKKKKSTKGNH
UniProt P38159: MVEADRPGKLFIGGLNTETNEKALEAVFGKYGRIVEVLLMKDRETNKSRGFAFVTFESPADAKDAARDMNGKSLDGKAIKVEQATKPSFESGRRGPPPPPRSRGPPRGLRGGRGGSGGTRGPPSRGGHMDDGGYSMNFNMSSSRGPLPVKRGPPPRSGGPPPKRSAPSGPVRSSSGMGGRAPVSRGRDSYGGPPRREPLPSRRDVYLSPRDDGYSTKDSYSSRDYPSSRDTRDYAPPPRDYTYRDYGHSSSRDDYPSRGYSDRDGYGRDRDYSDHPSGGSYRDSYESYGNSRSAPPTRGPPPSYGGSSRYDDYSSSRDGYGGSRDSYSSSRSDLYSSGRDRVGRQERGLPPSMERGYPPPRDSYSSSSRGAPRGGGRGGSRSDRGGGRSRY
UniProt Q92841: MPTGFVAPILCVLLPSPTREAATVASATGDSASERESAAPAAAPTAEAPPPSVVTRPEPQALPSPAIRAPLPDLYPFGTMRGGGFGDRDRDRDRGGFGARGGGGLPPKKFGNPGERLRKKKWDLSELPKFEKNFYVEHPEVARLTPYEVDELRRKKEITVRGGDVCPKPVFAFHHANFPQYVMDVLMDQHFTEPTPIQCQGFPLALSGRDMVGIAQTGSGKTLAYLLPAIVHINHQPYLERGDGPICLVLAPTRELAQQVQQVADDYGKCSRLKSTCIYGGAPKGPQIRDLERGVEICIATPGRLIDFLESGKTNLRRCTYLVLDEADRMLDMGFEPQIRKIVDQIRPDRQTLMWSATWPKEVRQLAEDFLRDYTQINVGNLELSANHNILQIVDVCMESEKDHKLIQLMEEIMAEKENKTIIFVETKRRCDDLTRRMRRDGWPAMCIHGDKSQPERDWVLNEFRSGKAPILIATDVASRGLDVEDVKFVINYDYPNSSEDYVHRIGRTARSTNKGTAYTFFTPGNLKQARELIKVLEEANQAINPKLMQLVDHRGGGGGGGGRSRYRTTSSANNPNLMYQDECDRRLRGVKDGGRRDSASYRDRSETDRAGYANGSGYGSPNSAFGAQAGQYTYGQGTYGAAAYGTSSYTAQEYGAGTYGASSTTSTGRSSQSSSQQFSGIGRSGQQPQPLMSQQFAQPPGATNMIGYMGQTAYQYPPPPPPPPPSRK

molecular target: HBV core protein (HBc) fused at its N-terminus to a streptavidin (ST)-binding peptide (Hepatitis B virus) (UniProt P03146); assay: pull-down; Strep-Tactin purification of ST-HBc from Benzonase-treated nuclear extracts of dHepaRG-TR-ST-HBc cells; eluted proteins detected by western blot

Row | Molecule | binding
1 | PARP1 (from UniProt P09874 1-1014) | binds
2 | DNAJB6 (from UniProt O75190 1-326) | binds
3 | RBMX (from UniProt P38159 1-391) | binds
4 | DDX17 (from UniProt Q92841 1-729) | binds
5 | B1 | binds
6 | B2 | binds
